Test results from the supplement of paper PMC3334620.
Whole data set: some 33,000 sequences, median “E-score (-0.5 to 0.5)” near -0.0014, cut for the highest 2% near 0.25. The list shows a part of the results.

target: T1, Cad1 (UniProt P24813); test: PBM E-score (8-mer binding enrichment) (E-score (-0.5 to 0.5)); higher = stronger / more preferred TF binding; settings: protein concentration: 100 nM; construct: GST-full length
T1 sequence: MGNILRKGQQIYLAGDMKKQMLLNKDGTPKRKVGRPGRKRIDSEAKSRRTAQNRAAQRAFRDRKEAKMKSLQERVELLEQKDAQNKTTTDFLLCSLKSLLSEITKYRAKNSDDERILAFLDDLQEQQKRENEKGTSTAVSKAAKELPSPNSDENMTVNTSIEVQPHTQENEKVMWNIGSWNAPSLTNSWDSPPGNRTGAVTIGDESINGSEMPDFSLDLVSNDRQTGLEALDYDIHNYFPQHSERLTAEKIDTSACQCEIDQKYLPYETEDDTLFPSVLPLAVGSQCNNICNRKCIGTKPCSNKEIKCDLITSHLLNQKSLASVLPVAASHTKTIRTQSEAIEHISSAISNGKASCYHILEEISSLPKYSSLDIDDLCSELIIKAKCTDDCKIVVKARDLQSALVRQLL
Outline: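 Each ungapped eight-base word and its reverse complement, pooled, received an E-score from the Universal PBM Analysis Suite. Underlying scans, normalised with masliner, recorded fluorescent anti-GST bound to GST-tagged yeast transcription factors. These were applied at about 100-200 nM to universal all-10-mer Agilent arrays double-stranded by primer extension.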

Sequence	PBM E-score
AGCAGGTG	0.0922
GCGCCCCA	0.00354
AACAGCTC	-0.0355
TAAGTAAA	0.118
AGGAAATG	0.0772
ATTTTGAG	0.0399
CGGTCACC	-0.165
AGCGGGCA	-0.281
CAGTTGCG	0.124
AAGCTAAA	-0.0688
ACAGTTTG	0.0317
CCGTACAA	0.0547
CGAGCCAG	0.0263
AATCCACC	-0.0222
ACACTGGT	-0.0108
ATAACGTG	0.0667
ACTGTACG	-0.0253
AGCCTATC	0.028
CAAGCCAG	-0.0467
CAAATGGA	0.0716
ACTTCGTA	-0.0581
AGCGTCAG	0.0724
CCTGATGA	0.0887
AAGAATCG	0.176
GACAACGC	0.0253

Sequence	PBM E-score
ACTTACCC	0.0598
GGGGATGA	-0.094
CCCACACA	0.00769
ACGACCTG	-0.216
AAGTGAGC	-0.0644
TAAGCCGA	0.181
ACTACCTC	0.00569
GTAAGCTA	0.298
ATAAACCC	0.0626
CAAACAAC	0.185
ACTTCTGA	-0.00477
ACCTACCG	-0.0813
CGCTGAAG	0.0981
CCGTTGCA	-0.0118
ACGTGCAG	-0.114
GTTATGAA	0.0492
CAATTGAA	-0.0146
CTGGATGC	-0.195
AACTCCTT	-0.168
GAGTCATC	0.127
ATGAAGGA	0.0663
ACCTCGCG	0.136
CTCTTTGA	-0.168
ATCAATTG	0.186
GCCACCCA	-0.126

Sequence	PBM E-score
ACTGGCCG	-0.244
AGGATGTA	0.0477
GAAAAATC	0.131
GACGTTTA	0.0281
CTGTCTAC	0.0091
AACTCACC	-0.0279
ACAATCTC	-0.0192
ATAGAAGC	0.119
CGTAGAAC	-0.171
GTTTGAGA	-0.0355
TAAGCAAA	0.18
CAGTACCG	-0.126
GCAACGGA	0.203
CGCGATGC	-0.0576
CAGGACGC	-0.0192
TGTGTCAA	-0.0431
CAAATATA	-0.0118
CTTCTCCA	-0.191
CATATCGG	-0.106
AGGGTCCG	-0.306
ACAGGTGA	-0.184
AGTTCCCA	0.181
GCCCGCGA	0.0255
CAGGGGGC	-0.397
AGCGGTAG	-0.224

Sequence	PBM E-score
CCGCGTTC	0.146
GACGATGA	-0.0492
GTCCTGGA	-0.0364
AAAATCGG	0.0568
ACCTGTAT	-0.048
AATTCGAG	0.062
GCACCGAA	0.143
CACTCAGC	0.012
CCATTTAA	0.0115
ATCCTTGG	0.0374
AGAAAAAA	0.0837
GGATTCGA	-0.148
AAGTTGAG	0.0317
AAGACTGT	-0.0728
ACTTCTCG	0.0748
AACTCGTC	-0.0198
CAGGTCGA	0.0664
ACGAAACC	0.202
AATTGCAC	0.0357
AGTTCCAA	0.0339
GTAAGACA	0.0626
TATTTAAA	0.117
AATACCCA	0.0624
AAACAAGG	-0.015
GGGACCGA	-0.0725

Sequence	PBM E-score
GGTATTAC	0.186
CGTACTGC	-0.117
AGTCTAGG	-0.197
CATTGGGG	-0.247
CAGGGTTC	0.024
ATCCATTC	0.131
AAAGCGAA	-0.0101
AAGTGATG	-0.0174
AGTGTTGA	0.101
AGGGGCAA	-0.125
AGAAAGAC	0.016
GAAATGCC	-0.15
GATTTCGA	-0.0223
CAGAACAG	-0.00393
ACTAAGAG	-0.0753
AGTAATAA	0.132
AGCGGTGA	-0.0991
AGGCCGTA	0.131
CGCATGCA	0.154
AGGGGGTC	-0.445
ATGGCCTA	-0.0975
ATTAACGG	0.139
GTTGAGAA	0.0176
GACGTGCC	-0.162
TCCCTGCA	0.043

Sequence	PBM E-score
GTACTGCA	-0.0315
ACTGCTCT	-0.0467
GTGTCAGA	-0.063
GACCAATC	0.0744
CCCGGGAG	-0.0573
GGACGTCC	0.147
CCCCAACC	-0.0982
CATAAGTC	-0.00869
CTACATCC	-0.132
CAGTACAC	-0.0523
AATAGTGC	0.135
CTTACGAA	0.155
AGGAACAC	0.134
ATGCGACG	-0.0604
AGTCATTC	-0.206
CACCTAGA	-0.156
TACTCGGA	0.0784
AACCTACA	0.113
GAGGGCAA	0.0132
TACTGGCA	-0.207
ACAAGATC	-0.162
AAGAGGAT	-0.242
AAAATTGT	0.167
CTATGCAG	0.15
GTATGTCA	0.191

Sequence	PBM E-score
GAGCAGCC	0.062
TCTAAACA	-0.00542
CCTGCTAA	-0.128
GCGCACCA	0.134
AGCCGTAA	0.0619
ATAAGAGC	0.0891
GAAGACCA	-0.0594
GAGTAGAA	0.0302
CGGAAGGC	-0.258
ACGCGGCC	-0.0773
ACTCTTCC	-0.115
AACACTGG	-0.0124
CGATGGAA	0.0409
ACAGCCAG	0.0367
ATTCATCA	0.132
CAGCCCGA	-0.094
ACGCAGCG	0.0217
AGGTAGTA	0.113
GGCGAGAC	-0.103
ATTTTGTC	0.121
ACGCTAAA	0.0989
ACCTTCAT	-0.0561
GGCCATCA	-0.0758
GATCTGAA	-0.0481
CAGTCGAA	-0.137

Sequence	PBM E-score
AAGTTATT	0.11
GATGTCTA	0.0163
CCTTTACG	0.114
AATGGAAT	0.165
CTGAAGCC	-0.0812
ATAAAGTG	0.0831
CCTAGGAA	-0.0631
CAATGTGG	0.0868
ACTAGATA	0.0286
ATAGTTTC	0.0743
CTGACTCA	0.138
CAGTACGC	0.00345
CGGTTATA	-0.0843
GAAGCGTA	-0.0711
GCACGGGA	0.00455
GACCTTTA	0.0223
CTGCCCGC	0.121
ACTGAGGC	0.165
AATCTATC	0.0112
AACTGGAT	0.0915
CGTCGGGC	-0.217
GAACTAAC	-0.0054
CTTATCCC	-0.0437
CAGTGCCC	-0.109
AATACTCC	-0.123

Sequence	PBM E-score
GGTCAGAC	-0.0236
ATCCATCA	-0.0223
CCTTTCCA	-0.116
GCCTCTAA	-0.0482
CGATAACC	0.0893
CCATTAAG	0.0196
AAAACATT	0.072
CGGTAGTC	-0.114
TCCCACAA	-0.0498
GCAATGAC	-0.139
AGGATAAT	0.187
ATGCAAGA	0.0655
GAAGTCTA	-0.198
ACCAGGCG	-0.117
TGTGCGAA	-0.0794
AGCATCGA	0.116
AACATCTT	-0.189
GACGATCA	-0.108
ACGTCGCG	0.0898
GTCATAAA	0.0848
AAACACGC	0.1
CAAGTAGG	-0.12
GACCTCTA	-0.177
CAACTCCA	-0.137
AATTGGAT	0.232

Sequence	PBM E-score
GCTTTGGA	0.0958
AACATCGC	0.0209
CGGGACTC	-0.109
ATCCCTGG	-0.161
ATTAAAAT	0.253
CTTATTCA	0.17
TAATAAGA	0.137
AGAAATAT	0.222
CGTCGAGA	0.139
AATAACTA	0.168
CGGAGTAA	0.109
GACGTGGC	-0.177
CAGCCTCC	-0.231
ATGTTACG	0.111
ACTCGCAA	0.0854
CATACATG	0.0962
AGAGGAAG	-0.119
CTCCAAGC	0.0211
GGGCGCGA	0.0847
GGCCTCAA	-0.0369
AGCCCCGG	-0.296
CCCTCAGC	-0.088
AAATCACG	0.148
CCCGCGGC	0.0319
AAACCTGG	0.00289

Sequence	PBM E-score
CACGAGCA	-0.00827
CGTGAGAC	0.117
GATCAACA	0.131
AATCTCGG	0.034
TCCGCAGA	0.11
ATCCGCGC	0.181
CTGCTCCC	-0.0673
TCCTTAAA	-0.0154
AGTACCCA	-0.126
CACCCTCA	-0.0865
AAAAGCTA	-0.0331
ATAAAGTA	0.157
AAGTCTTG	-0.113
CGGGGCTA	-0.177
CTTTACTC	0.13
GGGTTTTA	-0.0872
ACGCCCGG	-0.0906
GACGCTAC	0.00555
ACGGAAAG	-0.0279
GATGCTGA	-0.216
CGGACGAG	-0.0449
AATGAATA	0.157
GTACCGCA	0.109
CCAACACG	0.0589
GCCTGTCC	-0.0216

Sequence	PBM E-score
CTTACCAA	0.205
CTATACCC	-0.0907
TGTCACAA	0.235
ACTAACCT	0.0575
ATGAAGCC	0.064
CACCTAGC	-0.248
GTGATATA	0.0139
ACTGAGTC	0.0353
TCTTCACA	-0.00024
CGCACAAC	-0.0468
ATCTCCGA	0.151
ATCCCGGG	0.146
CCGAGTAG	0.0935
CAGCTGAA	0.0173
GGCCGCGA	0.0232
AGGAATTG	0.0938
ACAACAGT	0.0838
AACGGCAT	0.128
CAGATGAC	-0.154
CTCAGCGC	0.0582
GACTTACC	-0.142
GGGGGGTA	-0.46
AACAATTG	0.0478
ACTCAAAC	0.0288
GGCCCCCA	-0.385

Sequence	PBM E-score
CTACTAGC	0.0785
ACGACCCC	-0.0856
GATATATC	0.211
ACTGAGTA	0.0662
CTGGAATA	0.0836
GTCCACAC	0.128
AACTACGC	-0.046
AAGACCAG	-0.169
GTAGCAAC	-0.0716
CACGTTGG	-0.00928
ACGGCGCG	0.322
ATAGCCGC	0.0298
CGTCGACC	0.118
ACTCCATA	-0.191
CACCGCAG	-0.0791
CGTTTAGA	0.113
GAGCGCCA	-0.0152
GTCACCCA	-0.0308
CTTACACA	0.0675
AACAGGCA	-0.0352
ACACCCGG	-0.0646
AGTTGCAT	0.0768
GCCGGAAC	-0.0106
ACATTTCA	0.105
ATAGTTCA	0.0339

Sequence	PBM E-score
AATCCCGA	0.101
ATAATGCA	0.0116
CGCAGCAC	0.0114
AGAGCATA	-0.162
AATATGGG	-0.0935
CTTGCTCA	-0.185
ACATACAT	0.11
ACAGCAAA	0.107
CGTGGAAA	0.0874
ATTCTTGC	-0.00905
GCTCGGAC	0.0173
CGTCTGCC	-0.0942
CCCATGGG	0.0163
GCAGGTAC	-0.316
ACCATGGG	-0.198
GTATACTA	-0.146
GCCGCAAA	0.176
TATTAGAA	0.24
ACCCTAAA	0.0825
